Assay results taken from patent publication US20190337989A1 (priority 2016, published 2019).

Assay: general procedure: Fmoc solid-phase peptide synthesis; H-Asp(OtBu)-Trt(2-Cl) resin (antigen peptide); NH2-SAL-Trt(2-Cl)-Resin (MAP core)

Substance	conjugation yield (conjugation step)	isolated yield (whole synthesis, scale of the general procedure 1 mmol)
Core-[PEG-STQKAID]4	55%	–
N3-PEG-STQKAID	–	56%
